In PubChem BioAssay AID1347423 (Functional Genomics Laboratory (NCATS/FGL), 2020):
In all, about 52,000 sequences went through this assay and about 210 (0.4%) were called active.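 The calls were made as follows: active = gene whose silencing raises cell survival under the drug, median off-target-corrected z-score across its silencing RNAs 2 or more; inactive = the rest.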 This is one part of the list.

experiment: Resistance to Poly (ADP-Ribose) Polymerase inhibitor: Gene Identification via Genome-wide siRNA Screen; details: mouse BRCA2 R2336H ES cells, olaparib, CellTiter-Glo viability; active compounds read high
Method in brief: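 Genome-wide siRNA screen (3 siRNAs/gene, 20 nM) in mouse ES cells carrying hypomorphic BRCA2 R2336H; olaparib 500 nM added 48 h post-transfection, CellTiter-Glo viability 72 h later. Normalized to plate-median negative control; MAD z-scores, gene median, seed-adjusted.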

| Sequence | z-score |
| --- | --- |
| GGAUAACUGCUUCAUUUCCTT against D430020F16 | inactive: 0.375 |
| CCGUGGCAUGUUCAUGAAATT against Mpg | inactive: 1.19 |
| CCAGUAGCACGUGUUAUUUTT against RbmY1a1 | inactive: 0.193 |
| GCCGCCAUGGACUUACAAGTT against Stim2 | inactive: -0.161 |
| GCAUGGAAAAAGGCUUUGATT against Olfr91 | inactive: -0.69 |
| GGUUUUCAUGGUUAUCUGATT against Nrgn | inactive: -0.103 |
| GUACCUCUUCUCUAUCACUTT against Pla2g2e | inactive: -0.622 |
| GGAAGAUUUGUUCUAUACUTT against Epgn | inactive: 0.394 |
| CGAAAAGAAGUGUUUCCUGTT against Lamb2 | inactive: 0.531 |
| GGUGUCUGGCAAGUACAAATT against 1810010M01Rik | inactive: 1.58 |
| GGAACCUUACUCAUGUCCCTT against Tlr6 | inactive: -0.62 |
| GGACGAAGACACCAAAGUGTT against Camk2a | inactive: -0.85 |
| GCCACUUACCCUUUCAGGCTT against Nfe2 | inactive: -0.267 |
| GCAGGUUCACAAUGGAUUATT against Lrrc25 | inactive: 0.916 |
| GGACAAAUGGGUAUUAUCUTT against Phxr4 | inactive: -0.542 |
| CCGACUUUGCCAGGAUUUCTT against Fbxl7 | inactive: 0.636 |
| GCAGGUUAGACCAUGGCUATT against Diras2 | inactive: 1.07 |
| GGACACAAAGGAAUCUCUUTT against Olfr374 | inactive: -2.22 |
| CCACUAUUCUUAACUUGGCTT against Hdac7a | inactive: 1.6 |
| GCUUGUGCCGGAUAAAGGUTT against Gng3 | inactive: -0.952 |
| CCAAAUCGCUUCACAUAAUTT against Atp6v1g2 | inactive: -1.14 |
| GGAUCUGAAACAAAAACACTT against Slc8a3 | inactive: 0.29 |
| GGCGACUCCAUCUAAACAATT against Slitrk5 | inactive: 0.518 |
| CCAUUCCGGUUACUUUCGATT against Hspb1 | inactive: -0.563 |
| CCCAAUGAUCCUAACCAUUTT against Zfp459 | inactive: 1.38 |
| GGGAUGAGUCUUUAAAAUCTT against 4930417G10Rik | inactive: -0.263 |

Fetched one by one from the list above, four records:

| Sequence | z-score |
| --- | --- |
| GCUUGUGCCGGAUAAAGGUTT against Gng3 | inactive: -0.952 |
| CCAGUAGCACGUGUUAUUUTT against RbmY1a1 | inactive: 0.193 |
| CCGUGGCAUGUUCAUGAAATT against Mpg | inactive: 1.19 |
| GGAUCUGAAACAAAAACACTT against Slc8a3 | inactive: 0.29 |

As entered above:
CCGACUUUGCCAGGAUUUCTT against Fbxl7 – z-score: inactive: 0.636
GCUUGUGCCGGAUAAAGGUTT against Gng3 – z-score: inactive: -0.952
GGACACAAAGGAAUCUCUUTT against Olfr374 – z-score: inactive: -2.22
GGUGUCUGGCAAGUACAAATT against 1810010M01Rik – z-score: inactive: 1.58

Following part:

| Sequence | z-score |
| --- | --- |
| GGGAUCCUUAAUAUUUUGATT against Dazap2 | inactive: 0.012 |
| CCUCACCCUUUCCAAAAAATT against 1810060D16Rik | inactive: 1.35 |
| CGACCUGACUUUUCUUAGGTT against Dncl2b | inactive: -0.14 |
| GGAUGUUACCUUGGUGGGUTT against Olfr1323 | inactive: -2.02 |
| GCAUCAGAUAGAGAUUGCUTT against C730036D15Rik | inactive: -1.95 |
| GGCUUUUAAGUUCAUCGCATT against 2810012G03Rik | inactive: -0.859 |
| GCAAGUCUCUGCGCUAUUATT against 4931417E11Rik | inactive: -1.38 |
| GGAUCAUCCAAGUGUUCCGTT against Olfr555 | inactive: 0.433 |
| GGAUGCUGUGAGAAGAACUTT against Olfr1416 | inactive: -0.168 |
| GGAAACCUCAUACAAAACATT against Tex14 | inactive: 0.202 |
| GGUCUAAGGCAUGGGUCAATT against 2010001J22Rik | inactive: -0.866 |
| GGUUUCUUUCUCUGAGUUUTT against Man2a1 | inactive: 0.572 |
| GGCAACAAGAGCUUUACUCTT against Gabrp | inactive: 0.0907 |
| GGAGAAAAUAACUUGUUUCTT against Ssr3 | inactive: 0.639 |
| GCCUACAUAACCUUAAUAUTT against Slc4a10 | inactive: 0.0349 |
| GCACUGUAACAGCGAGUUATT against Tdgf1 | inactive: -0.233 |
| CGUUAAAUGGCAGUACAGATT against Qk | inactive: 1.03 |
| CGAGAUAGACCGAAAACUGTT against Rad54l | inactive: 2.39 |
| GGGCUGUCUCAAUGAGAUGTT against Iigp5 | inactive: 0.564 |
| GGAAACCGUUCUCAUUAAATT against Mrpl30 | inactive: -0.327 |
| GCUGUAAGCUACCGUCUGUTT against Panx2 | inactive: 0.276 |
| GCUAAUCAACAUCUACUUGTT against Nmt2 | inactive: 0.699 |
| GUACAAAGCCUUUAAAGAUTT against Ang3 | inactive: 1.79 |
| GCGGAAAAACAACUGCCAUTT against DXImx46e | inactive: 0.665 |
| GGUUACCAGUAUGUCUUAGTT against Cryba2 | inactive: -1.91 |
| CCUAAACAAGAUGACGACATT against 1300002A08Rik | inactive: -0.0482 |

| Sequence | z-score |
| --- | --- |
| GCACUGGUGGACAGAUUCUTT against Col3a1 | inactive: 1.79 |
| GGAGAAGUAAUGACAAAUUTT against Foxp4 | inactive: -0.525 |
| UGGCAAAAAGGUGAUAACUTT against Hbb-b2 | inactive: 0.357 |
| GCUAUUUGGUACCCUUUGATT against Olfr600 | inactive: -3.27 |
| UUCACUGUAAGAAUUGUCUTT against V1rd21 | inactive: 0.342 |
| GGUGAAAUAUGCAGUAAAATT against Adam18 | inactive: -1.12 |
| GGCUUUAGCUAAAGAAGAUTT against A830093I24Rik | inactive: -0.182 |
| GGAAUGUGGGAAUAUUUACTT against Zfp59 | inactive: 0.159 |
| CCGUUCUUCAUAUGAGCUCTT against Olfr164 | inactive: 0.329 |
| GCGGAAGGCACAGAUAGAATT against Ccdc2 | inactive: 1.37 |
| GGAUUUGCCCAAAAUAAAATT against Nap1l5 | inactive: 1.4 |
| GGAUGAUCGGCACUAUAACTT against BC087945 | inactive: -0.933 |
| GGAUCACUUUAUUUGCUAGTT against Btg1 | inactive: 0.108 |
| CGGAUUAUGAGGGACAAGCTT against 2610037M15Rik | inactive: 1.34 |
| GGAUAUCCGAGGUGCUGUATT against 2410004H02Rik | inactive: 0.689 |
| GGUUUACAAUGAGAUAGUUTT against Lipf | inactive: -0.114 |
| GGAGGUGAAAGGCAAAACUTT against Poldip2 | inactive: -0.481 |
| GAGUCUUACAUCAAGAAGATT against 9230106D20Rik | inactive: 0.855 |
| GGAGACCUAUGAGGUAUUUTT against Ckmt1 | inactive: -0.00508 |
| GGAAAAGACUAACGAGCGGTT against 1110030J09Rik | inactive: 0.0624 |
| GCUAUGCUACUAAGCAUUCTT against Bmp8b | inactive: -0.657 |
| GGAAAAUCUACUGUUUCCCTT against 4933425F06Rik | inactive: 0.499 |
| GGACUCAGGCCAAGAAAGATT against Rrs1 | inactive: -0.245 |
| GGAUGCUGUCCAACUGGAUTT against Plxnb2 | inactive: 0.289 |
| CGGCCUCUCGAAUCGAUAUTT against Usp19 | inactive: -0.792 |
| GGCUCAAUAAUGUUUUCAATT against Smpd3 | inactive: 0.44 |

| Sequence | z-score |
| --- | --- |
| CGAGCUUUGCACUUACUAUTT against Vtn | inactive: 1.08 |
| GCUAUCUCUCUUUUCAACATT against 4732465J04Rik | inactive: 0.241 |
| CCCUCAUGGUACCUUGGCATT against Slc7a4 | inactive: -0.533 |
| CCUAUUGUAGCAAGUUACATT against Hist1h3f | inactive: 0.45 |
| GGGUAUAUUUGGAACUACGTT against Pyp | inactive: -0.212 |
| GCAGUAAGCUUUUGCUAAATT against Zfp334 | inactive: 0.908 |
| GCAUGUUAAGGAGACUCAGTT against Golph3 | inactive: -0.706 |
| GGUGUCAGCGAAAAGCAGUTT against Ring1 | inactive: -1.25 |
| CCGGAGAUUUGCUCUUAGUTT against Pcdhb3 | inactive: 0.522 |
| GGUAUGACCCAGAAGAAGGTT against Pip5k1c | inactive: -1.89 |
| CCGACAAAAGGUAUUCUGGTT against Aatf | inactive: -1.4 |
| GGAAGGAUAUUGGUUACCATT against Zmynd11 | inactive: 0.0875 |
| GGUAACUGAGAAAACCAGATT against Adam29 | active: 1.12 |
| CCUUUAAAGUAAGCAUGUGTT against Slc27a4 | inactive: 0.658 |
| GCCGUUCCUAUGUCUAUGCTT against Serpina1b | inactive: 0.809 |
| GCAGCAUCGCGUAGAAACATT against Nola1 | inactive: -3.04 |
| CCGGUACCUAAACUACUUCTT against Unc5b | inactive: 0.776 |
| GCGUAAACCAAGAAAGCUUTT against Mcl1 | inactive: -3.18 |
| GUCAGAACAAAACCAAAUGTT against E330013P04Rik | inactive: -1.17 |
| GGAAGAUAAGCUAAAUAUCTT against Clca4 | inactive: 0.407 |
| CCAACAUCUCUGUAUACUGTT against Olfr8 | inactive: -0.812 |
| GGUGAUGAAAAUGACAUUCTT against Atp1b4 | inactive: 0.549 |
| GGGUUGCUAAAUUUGAAACTT against Psg25 | inactive: 0.742 |
| GGAAGCAUUAUUGGUCAAUTT against Tcf3 | inactive: -0.338 |
| GCUGCUCUGCUAUAAGUAUTT against Kptn | inactive: 1.13 |
| GGGCAAGGUGUAUUGUCAATT against D830050J10Rik | inactive: 0.223 |
